{
  "source": "paper PMC3104989",
  "about": "“Design, Synthesis, and Characterization of a Highly Effective Hog1 Inhibitor: A Powerful Tool for Analyzing MAP Kinase Signaling in Yeast” (PLoS ONE, 2011)",
  "biological_target": "T1, Hog1 (Saccharomyces cerevisiae, UniProt P32485)",
  "T1 sequence (P32485 2-435)": "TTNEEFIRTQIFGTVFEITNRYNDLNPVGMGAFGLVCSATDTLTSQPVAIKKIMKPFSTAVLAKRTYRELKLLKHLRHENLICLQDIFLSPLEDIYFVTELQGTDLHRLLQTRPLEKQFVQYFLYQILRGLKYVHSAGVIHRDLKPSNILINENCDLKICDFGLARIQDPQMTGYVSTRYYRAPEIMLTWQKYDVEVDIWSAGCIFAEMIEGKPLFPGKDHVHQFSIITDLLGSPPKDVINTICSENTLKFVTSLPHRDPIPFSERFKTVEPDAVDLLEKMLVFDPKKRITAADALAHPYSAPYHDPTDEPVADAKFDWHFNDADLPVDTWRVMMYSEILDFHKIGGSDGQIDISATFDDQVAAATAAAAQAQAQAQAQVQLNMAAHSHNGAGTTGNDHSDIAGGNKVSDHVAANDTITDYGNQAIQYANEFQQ",
  "assay": "in vitro radiometric kinase assay with biotinylated Sic1 peptide",
  "type": "biochemical",
  "data": [
    {"smiles": "C[S+]([O-])c1ccc(-c2nc(-c3ccncc3)c(-c3ccc(F)cc3)[nH]2)cc1", "note": "(stereo not shown) [SB203580]", "values": [
      {"measurement": "IC50", "value": "49.5 ± 1.6", "unit": "nM"}
    ]}
  ]
}
